In this test the target is T1, PRDE-1 (C. elegans) (UniProt O17828).
T1 sequence: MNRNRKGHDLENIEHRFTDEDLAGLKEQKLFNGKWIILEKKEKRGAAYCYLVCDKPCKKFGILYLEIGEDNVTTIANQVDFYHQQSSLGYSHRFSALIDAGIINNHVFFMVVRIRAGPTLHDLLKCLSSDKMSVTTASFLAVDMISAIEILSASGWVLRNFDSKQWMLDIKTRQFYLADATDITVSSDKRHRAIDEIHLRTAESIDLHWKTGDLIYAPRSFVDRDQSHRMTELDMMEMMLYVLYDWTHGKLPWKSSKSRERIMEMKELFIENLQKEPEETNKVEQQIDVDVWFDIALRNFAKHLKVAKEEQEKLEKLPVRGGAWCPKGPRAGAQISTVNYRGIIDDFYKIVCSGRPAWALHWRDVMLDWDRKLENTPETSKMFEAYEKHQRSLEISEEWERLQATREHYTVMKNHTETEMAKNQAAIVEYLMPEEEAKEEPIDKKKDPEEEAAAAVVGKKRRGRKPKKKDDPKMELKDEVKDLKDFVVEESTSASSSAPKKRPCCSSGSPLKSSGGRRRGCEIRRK
The test is described as follows: affinity purification with mass spectrometry.

Protein sequences, listed by entry. Tags and fused reporters are not part of them. Lines headed by an entry give the natural chain unless they say otherwise; changes in a name come on top.
UniProt O01819: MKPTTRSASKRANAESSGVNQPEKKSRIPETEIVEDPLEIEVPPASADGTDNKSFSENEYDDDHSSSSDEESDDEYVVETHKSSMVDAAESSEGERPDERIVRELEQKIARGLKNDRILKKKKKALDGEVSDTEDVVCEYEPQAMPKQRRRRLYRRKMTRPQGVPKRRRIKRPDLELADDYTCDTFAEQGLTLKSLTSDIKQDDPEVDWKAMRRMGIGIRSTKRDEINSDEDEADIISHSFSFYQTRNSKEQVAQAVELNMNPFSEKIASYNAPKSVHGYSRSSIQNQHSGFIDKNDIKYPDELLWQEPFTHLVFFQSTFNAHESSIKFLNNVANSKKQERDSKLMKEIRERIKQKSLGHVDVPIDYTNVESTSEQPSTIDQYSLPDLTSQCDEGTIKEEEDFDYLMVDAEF

No constants are given. Whether binding was seen depends on the method and setting. Binding seen in cells or lysates may run through a third protein. These calls come from enrichment with a bait or labelling near it, and not all partners need be listed.

With TOFU-4 (from UniProt O01819), the binding result is reported as “binds”.

For the origin of these results see publication doi:10.1101/377390.
